# Measurements reported in PubChem BioAssay AID504648 (National Center for Advancing Translational Sciences (NCATS), 2011).
# Screen size: about 390,000 compounds; about 610 (0.16%) were called active. Inconclusive results, whose numbers are uncertain, are shown with a selection of clear calls. Calls follow the shape of the dose curve; as a rule, active = well fitted inhibition curve with a large enough effect; inconclusive = small, poorly fitted or top-dose-only effect, or effect the other way, or another doubt; inactive = no such curve, though single readings can be large or run the other way. Where the call is inconclusive, the potency comes from a doubtful curve fit.
# Assay: Nrf2 qHTS screen for inhibitors: counterscreen for cytotoxicity
# Settings: A549 ARE-Fluc cells, CellTiter-Fluor viability, 18-24 h; series mostly up to 46 µM; activity change, negative = cytotoxicity: at the top concentration
# Outline: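 A549 ARE-Fluc cells in 5% FBS OPTI-MEM, 5000 cells/well, rested 2 h then exposed to compounds in concentration-response for 18-24 h at 37 °C. Viability by CellTiter-Fluor fluorescence (Ex 405/Em 525) after 30 min; luciferase luminescence (BugLite, 15 min, RT) read afterwards.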
# % is scaled to controls: 0 for no effect and ±100 for the full control effect; potency is read from the fitted curve at half-maximal effect.
SMILES,Potency,"activity change, negative = cytotoxicity"
CN(C)c1ccc(-[n+]2c(-c3ccccc3)cc(-c3ccccc3)cc2-c2ccccc2)cc1,"inconclusive: 10.3 µM [falling, partial curve]",
Cc1cc(C(=O)Nc2ccc3c(c2)OCCO3)nn1C(C)(C)C,"inconclusive: 6.51 µM [activator, single point]",
COP(=O)(OC)c1nc(-c2ccc([N+](=O)[O-])cc2)oc1N1CCCCC1,"inconclusive: 18.4 µM [falling, partial curve, poor fit]",
COc1ccc(-n2c(-c3ccccc3Br)nc3ccccc3c2=O)cc1,"inconclusive: 10.3 µM [falling, partial curve, poor fit]",
CC[C@H](C)/C=C(C)/C=C/C1=CC2=C(Cl)C(=O)[C@](C)(OC(C)=O)C(=O)C2=CO1,"inconclusive: 20.6 µM [falling, partial curve, poor fit]",
CC(=O)OC[C@]12CCC(C)=C[C@H]1O[C@@H]1[C@H](O)[C@@H](OC(C)=O)[C@@]2(C)[C@]12CO2,"inconclusive: 0.0164 µM [falling, full curve]",
N#Cc1cn(C2OC(CO)C(O)C2O)c2ncnc(N)c12 (stereo not given),"inconclusive: 0.13 µM [falling, full curve]",
COc1ccccc1OP(=O)(Nc1ccc(Br)cc1)Oc1ccccc1OC,"inconclusive: 29.1 µM [falling, single point]",
COc1ccccc1N1C(=O)NC(=O)/C(=C/c2ccc([N+](=O)[O-])s2)C1=O,"inconclusive: 32.6 µM [falling, partial curve, poor fit]",
COc1ccc(NC(=O)CN2C(=O)CN=C(c3ccccc3)c3ccccc32)c(OC)c1,,inactive: 5.97%
COC(=O)C1=C(c2ccc(Cl)c(C(F)(F)F)c2)C[C@@H]2CC[C@H]1N2C(=O)NCc1ccco1,,inactive: 4.97%
O=c1c2ccccc2nc(/C=C/c2ccc([N+](=O)[O-])o2)n1-c1ccc(O)cc1,"inconclusive: 29.1 µM [falling, single point]",
NCCc1ccc(OCc2ccccc2)c(OCc2ccccc2)c1,"inconclusive: 18.4 µM [activator, partial curve, poor fit]",
C[C@@H]1O[C@@H](O[C@H]2C[C@@H](O)[C@]3(CO)[C@@H]4C(CC[C@]3(O)C2)[C@@]2(O)CC[C@H](C3COC(=O)C3)[C@@]2(C)C[C@H]4O)[C@H](O)[C@H](O)[C@H]1O (stereo not given in full),"inconclusive: 2.91 µM [falling, partial curve]",
CCCCCn1c(=O)c(C(=O)NCc2ccncc2)c(O)c2ccccc21,"inconclusive: 29.1 µM [falling, single point]",
Cc1cc(/C=C2/C(=O)NC(=O)N(c3ccc(Br)cc3)C2=O)c(C)n1C,,inactive: -16%
Cc1ccc(C)c(CN2C(=O)c3ccccc3Sc3ccc(C(=O)N4CCC5(CC4)OCCO5)cc32)c1,"inconclusive: 32.6 µM [falling, partial curve, poor fit]",

# Individual results from above.
# Potency with `Cc1cc(C(=O)Nc2ccc3c(c2)OCCO3)nn1C(C)(C)C` reads inconclusive: 6.51 µM [activator, single point]
# Potency with `COc1ccccc1N1C(=O)NC(=O)/C(=C/c2ccc([N+](=O)[O-])s2)C1=O` reads inconclusive: 32.6 µM [falling, partial curve, poor fit]
# Potency with `O=c1c2ccccc2nc(/C=C/c2ccc([N+](=O)[O-])o2)n1-c1ccc(O)cc1` reads inconclusive: 29.1 µM [falling, single point]

# More entries:

SMILES,Potency,"activity change, negative = cytotoxicity"
C[C@H]1O[C@@H](O[C@H]2[C@@H](O)C[C@H](O[C@H]3[C@@H](O)C[C@H](O[C@H]4CC[C@@]5(C)[C@H](CC[C@@H]6[C@@H]5CC[C@]5(C)[C@@H](C7=CC(=O)OC7)CC[C@]65O)C4)O[C@@H]3C)O[C@@H]2C)C[C@H](O)[C@@H]1O,"inconclusive: 0.058 µM [falling, full curve]",
O=C(c1ccc2c(c1)N(Cc1c(F)cccc1Cl)C(=O)c1ccccc1S2)N1CCC2(CC1)OCCO2,"inconclusive: 29.1 µM [falling, single point]",
COC(=O)C1=C(c2ccccc2OCc2ccccc2)C[C@@H]2CC[C@H]1N2C(=O)NCc1ccc(Cl)cc1,"inconclusive: 23.1 µM [falling, partial curve, poor fit]",
COc1cc2c(c(OC)c1OC)-c1ccc(O)c(=O)cc1C(NC(C)=O)CC2 (stereo not given),"inconclusive: 0.461 µM [falling, partial curve, poor fit]",
COC1C(C)OC(OC2CC(C)(O)Cc3cc4c(c(O)c32)C(=O)c2c(O)cc3c(c2C4=O)OC2OC3(C)C(O)C(N(C)C)C2O)C(OC)C1(C)OC (stereo not given),"inconclusive: 14.6 µM [falling, partial curve]",
O=C1c2ccccc2-c2cc3ccccc3cc21,,inactive: -1.65%
c1ccc(CNC2CCCCCCC2)cc1 (tested in a mixture with another compound),"inconclusive: 23.1 µM [falling, partial curve, poor fit]",
COc1ccc(OCC(=O)N2CCCC(N3CCN(c4ccccc4C)CC3)C2)cc1 (stereo not given),"inconclusive: 6.51 µM [falling, single point]",
O=[N+]([O-])c1ccc(NC2CCN(Cc3ccccc3)CC2)c2ccncc12,"inconclusive: 18.4 µM [falling, partial curve, poor fit]",
CCc1ccc(NC(=S)NC2CC3CCC(C2)N3Cc2ccco2)cc1 (stereo not given),"inconclusive: 23.1 µM [falling, partial curve, poor fit]",
C[C@@H]1C[C@@H]([C@H](O)CC2CC(=O)NC(=O)C2)C(=O)[C@@H](C)C1,"inconclusive: 0.461 µM [falling, full curve]",
COc1ccc(-[n+]2c(-c3ccccc3)cc(-c3ccccc3)cc2-c2ccccc2)cc1,"inconclusive: 32.6 µM [falling, partial curve, poor fit]",
CCn1nc(-c2ccccc2)nc2c(=O)n(C)c(=O)nc1-2,active: 4.11 µM,
Cc1ccc(NP(=O)(Oc2ccccc2F)Oc2ccccc2F)cc1C,"inconclusive: 29.1 µM [falling, single point]",
Cc1cc(C(C#N)c2ccc(Cl)cc2)c(Cl)cc1NC(=O)c1cc(I)cc(I)c1O (stereo not given),"inconclusive: 18.4 µM [falling, partial curve, poor fit]",
CC(C)(C)c1cc(C=C(C#N)C#N)cc(C(C)(C)C)c1O,"inconclusive: 0.651 µM [falling, full curve]",
COc1ccc(NP(=O)(Oc2ccccc2OC)Oc2ccccc2OC)cc1,,inactive: -15.3%
